Taken from: PubChem BioAssay AID1259254 (NCATS, 2017)

- Assay: 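Finding genes that stop cells copying their DNA twice in one cycle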 (primary screen)
- Cells: human HCT116 colorectal cancer cells
- Reagent: single siRNA against human genes
- Duration: 3 days
- Detection: 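Imaged Hoechst DNA stain sorts each cell into a cycle phase by DNA amount; per plate, G2 fraction set to 0% for non-targeting and 100% for GMNN siRNA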
- Scale: G2 robust z-score and G2 cells, % of GMNN control: higher = more G2 cells, more excess DNA replication; raw share of cells in G2: higher = larger share of cells with G2 DNA content
- Rule for the call: 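Active siRNAs have a G2 robust z of 5 or more median absolute deviations over the median, which in these data means about 38% or higher of GMNN control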
Shown is an unselected part of about 59,000 reagents tested. Over the whole deposit, about 1,550 (2.6%) got an active call. 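G2 share is only a proxy for re-replication; each gene was hit by three separate siRNAs, and active genes were retested.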 Raw values are not corrected between plates. Entries without a mark were called inactive. Reagents against one gene are numbered here. Not given: the amount of reagent.

gene knocked down | reagent no. | G2 robust z-score | G2 cells, % of GMNN control | raw share of cells in G2 (%)
RIPK3 (receptor interacting serine/threonine kinase 3) | 1 | -0.202 | 1.54 | 6.07
RIPK3 (receptor interacting serine/threonine kinase 3) | 2 | 0.221 | 4.52 | 6.84
RIPK3 (receptor interacting serine/threonine kinase 3) | 3 | -1.12 | -4.91 | 2.11
RPS14 (ribosomal protein S14) | 1 | 9.44 (active) | 69.4 | 34.5
RPS14 (ribosomal protein S14) | 2 | 3.13 | 25 | 14.1
RPS14 (ribosomal protein S14) | 3 | 5.37 (active) | 40.8 | 18.1
FZD4 (frizzled class receptor 4) | 1 | -1.78 | -9.59 | 2.41
FZD4 (frizzled class receptor 4) | 2 | 0.645 | 7.5 | 7.14
FZD4 (frizzled class receptor 4) | 3 | 0.969 | 9.78 | 6.27
SORL1 (sortilin related receptor 1) | 1 | 6.04 (active) | 45.5 | 21
SORL1 (sortilin related receptor 1) | 2 | -0.587 | -1.16 | 4.15
SORL1 (sortilin related receptor 1) | 3 | 3.33 | 26.4 | 12.7
FAM3A (FAM3 metabolism regulating signaling molecule A) | 1 | -0.864 | -3.11 | 3.22
FAM3A (FAM3 metabolism regulating signaling molecule A) | 2 | -0.161 | 1.83 | 5.43
FAM3A (FAM3 metabolism regulating signaling molecule A) | 3 | 3.42 | 27.1 | 9.84
MVB12B (multivesicular body subunit 12B) | 1 | -0.936 | -3.62 | 2.55
MVB12B (multivesicular body subunit 12B) | 2 | -0.439 | -0.12 | 2.96
MVB12B (multivesicular body subunit 12B) | 3 | 1.89 | 16.3 | 8.08
ZNF709 (zinc finger protein 709) | 1 | 0.602 | 7.2 | 5.57
ZNF709 (zinc finger protein 709) | 2 | 0.0849 | 3.56 | 4.4
ZNF709 (zinc finger protein 709) | 3 | -1.07 | -4.53 | 1.94
KRT6C (keratin 6C) | 1 | 2.17 | 18.2 | 12.1
KRT6C (keratin 6C) | 2 | 0.265 | 4.83 | 7.99
KRT6C (keratin 6C) | 3 | 0.00332 | 2.99 | 5.38
OR7E154P | 1 | -0.439 | -0.121 | 3.06
OR7E154P | 2 | -0.444 | -0.159 | 3.87
OR7E154P | 3 | -0.339 | 0.579 | 3.5
PDE4D (phosphodiesterase 4D) | 1 | -1.25 | -5.86 | 2.54
PDE4D (phosphodiesterase 4D) | 2 | 0.854 | 8.98 | 7.71
PDE4D (phosphodiesterase 4D) | 3 | -0.276 | 1.03 | 3.81
PDE4D (phosphodiesterase 4D) | 4 | -0.346 | 0.533 | 3.46
PDE4D (phosphodiesterase 4D) | 5 | 1.78 | 15.5 | 7.66
PDE4D (phosphodiesterase 4D) | 6 | -0.68 | -1.82 | 2.95
PDE4D (phosphodiesterase 4D) | 7 | -0.356 | 0.465 | 3.53
PDE4D (phosphodiesterase 4D) | 8 | 0.704 | 7.92 | 6.09
PDE4D (phosphodiesterase 4D) | 9 | -0.0472 | 2.64 | 3.56
TTC3 (tetratricopeptide repeat domain 3) | 1 | -0.835 | -2.91 | 4.37
TTC3 (tetratricopeptide repeat domain 3) | 2 | -0.039 | 2.69 | 5.36
TTC3 (tetratricopeptide repeat domain 3) | 3 | 3.21 | 25.5 | 13.8
MACF1 (microtubule actin crosslinking factor 1) | 1 | 0.102 | 3.69 | 4.75
MACF1 (microtubule actin crosslinking factor 1) | 2 | 0.33 | 5.29 | 8.34
MACF1 (microtubule actin crosslinking factor 1) | 3 | 0.947 | 9.63 | 7.37
MACF1 (microtubule actin crosslinking factor 1) | 4 | -0.587 | -1.17 | 3.19
MACF1 (microtubule actin crosslinking factor 1) | 5 | 0.621 | 7.33 | 5.91
MACF1 (microtubule actin crosslinking factor 1) | 6 | 1.08 | 10.5 | 6.22
MTFP1 (mitochondrial fission process 1) | 1 | -0.584 | -1.14 | 3.2
MTFP1 (mitochondrial fission process 1) | 2 | -0.793 | -2.61 | 3.17
MTFP1 (mitochondrial fission process 1) | 3 | -0.722 | -2.11 | 2.49
HIC1 (HIC ZBTB transcriptional repressor 1) | 1 | 2.35 | 19.5 | 11.4
HIC1 (HIC ZBTB transcriptional repressor 1) | 2 | 2.08 | 17.6 | 12.4
HIC1 (HIC ZBTB transcriptional repressor 1) | 3 | 1.8 | 15.6 | 10.7
ADAD1 (adenosine deaminase domain containing 1) | 1 | 2.53 | 20.8 | 12.3
ADAD1 (adenosine deaminase domain containing 1) | 2 | -0.623 | -1.42 | 5.28
ADAD1 (adenosine deaminase domain containing 1) | 3 | -0.271 | 1.06 | 5.15
TCP10L3 (t-complex 10 like 3 (pseudogene)) | 1 | -1.65 | -8.63 | 1.31
TCP10L3 (t-complex 10 like 3 (pseudogene)) | 2 | -0.279 | 1 | 4.29
TCP10L3 (t-complex 10 like 3 (pseudogene)) | 3 | 2.33 | 19.4 | 10.2
SPIN3 (spindlin family member 3) | 1 | 0.748 | 8.23 | 6.55
SPIN3 (spindlin family member 3) | 2 | -0.595 | -1.22 | 2.55
SPIN3 (spindlin family member 3) | 3 | 1.35 | 12.4 | 6.7
WNT2 (Wnt family member 2) | 1 | 1.14 | 11 | 10
WNT2 (Wnt family member 2) | 2 | 0.625 | 7.36 | 6.82
WNT2 (Wnt family member 2) | 3 | 0.29 | 5.01 | 5.12
SMCO4 (single-pass membrane protein with coiled-coil domains 4) | 1 | 0.832 | 8.82 | 7.82
SMCO4 (single-pass membrane protein with coiled-coil domains 4) | 2 | 0.763 | 8.34 | 8.44
SMCO4 (single-pass membrane protein with coiled-coil domains 4) | 3 | -0.851 | -3.02 | 2.07
RNF214 (ring finger protein 214) | 1 | 2.56 | 21 | 11.3
RNF214 (ring finger protein 214) | 2 | 1.62 | 14.4 | 8.6
RNF214 (ring finger protein 214) | 3 | -0.0952 | 2.3 | 3.97

Targets listed so far whose gene name begins with F or f:
gene knocked down | reagent no. | G2 robust z-score | G2 cells, % of GMNN control | raw share of cells in G2 (%)
FZD4 (frizzled class receptor 4) | 1 | -1.78 | -9.59 | 2.41
FZD4 (frizzled class receptor 4) | 2 | 0.645 | 7.5 | 7.14
FZD4 (frizzled class receptor 4) | 3 | 0.969 | 9.78 | 6.27
FAM3A (FAM3 metabolism regulating signaling molecule A) | 1 | -0.864 | -3.11 | 3.22
FAM3A (FAM3 metabolism regulating signaling molecule A) | 2 | -0.161 | 1.83 | 5.43
FAM3A (FAM3 metabolism regulating signaling molecule A) | 3 | 3.42 | 27.1 | 9.84
